The values that follow come from article PMC12309053.

Protein sequences, listed by entry. Tags and fused reporters are not part of them.
UniProt Q13427: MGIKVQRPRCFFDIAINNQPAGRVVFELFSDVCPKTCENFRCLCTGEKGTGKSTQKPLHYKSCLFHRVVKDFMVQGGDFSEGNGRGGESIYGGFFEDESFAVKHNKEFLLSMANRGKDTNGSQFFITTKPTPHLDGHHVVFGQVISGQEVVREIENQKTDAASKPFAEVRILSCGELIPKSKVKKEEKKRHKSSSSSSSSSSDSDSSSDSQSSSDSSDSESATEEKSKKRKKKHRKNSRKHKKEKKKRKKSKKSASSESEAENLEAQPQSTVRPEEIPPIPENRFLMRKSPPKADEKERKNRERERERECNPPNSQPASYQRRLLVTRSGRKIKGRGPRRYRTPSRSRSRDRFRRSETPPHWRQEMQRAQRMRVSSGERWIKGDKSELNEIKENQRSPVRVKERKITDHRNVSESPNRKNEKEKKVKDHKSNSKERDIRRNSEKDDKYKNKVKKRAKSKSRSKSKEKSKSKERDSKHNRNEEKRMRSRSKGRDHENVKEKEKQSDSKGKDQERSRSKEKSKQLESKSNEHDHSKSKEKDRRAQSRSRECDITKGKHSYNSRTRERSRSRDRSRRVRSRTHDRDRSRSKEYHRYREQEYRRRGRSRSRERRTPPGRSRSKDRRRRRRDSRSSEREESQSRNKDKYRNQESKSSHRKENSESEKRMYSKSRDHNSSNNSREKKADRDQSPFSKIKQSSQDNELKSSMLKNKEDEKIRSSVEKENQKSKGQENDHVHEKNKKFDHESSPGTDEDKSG
UniProt O95602: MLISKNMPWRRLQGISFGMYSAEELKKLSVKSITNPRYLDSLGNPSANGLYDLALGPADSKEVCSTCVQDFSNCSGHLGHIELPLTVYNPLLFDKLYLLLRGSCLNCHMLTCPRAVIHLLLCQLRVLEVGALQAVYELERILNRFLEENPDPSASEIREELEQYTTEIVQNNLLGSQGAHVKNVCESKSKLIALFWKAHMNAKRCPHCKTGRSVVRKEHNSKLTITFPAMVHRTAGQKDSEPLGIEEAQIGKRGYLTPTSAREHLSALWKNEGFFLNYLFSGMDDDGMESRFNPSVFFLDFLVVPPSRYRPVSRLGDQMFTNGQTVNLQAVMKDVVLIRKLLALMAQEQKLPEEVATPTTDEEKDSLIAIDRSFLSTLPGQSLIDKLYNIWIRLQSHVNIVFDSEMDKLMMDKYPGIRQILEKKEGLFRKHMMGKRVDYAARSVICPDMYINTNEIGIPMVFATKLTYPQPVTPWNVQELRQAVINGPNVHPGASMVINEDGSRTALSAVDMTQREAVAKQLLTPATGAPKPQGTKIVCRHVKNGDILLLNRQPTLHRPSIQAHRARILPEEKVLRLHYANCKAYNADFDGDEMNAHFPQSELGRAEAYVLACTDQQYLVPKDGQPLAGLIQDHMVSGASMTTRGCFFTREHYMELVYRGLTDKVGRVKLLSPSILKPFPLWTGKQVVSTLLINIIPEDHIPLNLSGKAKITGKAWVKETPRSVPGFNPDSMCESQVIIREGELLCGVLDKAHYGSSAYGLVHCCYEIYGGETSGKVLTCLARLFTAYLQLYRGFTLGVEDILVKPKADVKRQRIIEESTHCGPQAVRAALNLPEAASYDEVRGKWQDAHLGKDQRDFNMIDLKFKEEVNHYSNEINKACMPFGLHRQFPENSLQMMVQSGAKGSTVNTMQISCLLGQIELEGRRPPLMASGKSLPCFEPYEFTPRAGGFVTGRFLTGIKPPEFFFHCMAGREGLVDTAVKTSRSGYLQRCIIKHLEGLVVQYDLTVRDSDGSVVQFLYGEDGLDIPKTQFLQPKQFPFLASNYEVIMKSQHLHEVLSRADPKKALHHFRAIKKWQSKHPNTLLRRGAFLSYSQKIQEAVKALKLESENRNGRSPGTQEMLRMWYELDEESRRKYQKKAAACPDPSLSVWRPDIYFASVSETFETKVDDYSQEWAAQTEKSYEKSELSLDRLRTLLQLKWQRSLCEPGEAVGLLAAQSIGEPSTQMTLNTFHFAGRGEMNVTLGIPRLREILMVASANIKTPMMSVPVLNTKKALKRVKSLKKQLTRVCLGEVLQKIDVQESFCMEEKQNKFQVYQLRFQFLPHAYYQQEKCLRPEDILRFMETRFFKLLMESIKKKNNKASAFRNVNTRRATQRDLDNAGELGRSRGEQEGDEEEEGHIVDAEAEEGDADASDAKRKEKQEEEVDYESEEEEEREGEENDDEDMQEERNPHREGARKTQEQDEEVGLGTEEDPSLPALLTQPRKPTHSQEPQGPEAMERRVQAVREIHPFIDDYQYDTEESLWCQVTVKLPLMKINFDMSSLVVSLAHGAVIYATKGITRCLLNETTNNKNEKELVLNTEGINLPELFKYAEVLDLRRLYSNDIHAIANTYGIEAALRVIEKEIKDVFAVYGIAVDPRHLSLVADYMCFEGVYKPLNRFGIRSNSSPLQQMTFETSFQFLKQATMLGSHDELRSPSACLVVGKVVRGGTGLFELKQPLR
UniProt P55081: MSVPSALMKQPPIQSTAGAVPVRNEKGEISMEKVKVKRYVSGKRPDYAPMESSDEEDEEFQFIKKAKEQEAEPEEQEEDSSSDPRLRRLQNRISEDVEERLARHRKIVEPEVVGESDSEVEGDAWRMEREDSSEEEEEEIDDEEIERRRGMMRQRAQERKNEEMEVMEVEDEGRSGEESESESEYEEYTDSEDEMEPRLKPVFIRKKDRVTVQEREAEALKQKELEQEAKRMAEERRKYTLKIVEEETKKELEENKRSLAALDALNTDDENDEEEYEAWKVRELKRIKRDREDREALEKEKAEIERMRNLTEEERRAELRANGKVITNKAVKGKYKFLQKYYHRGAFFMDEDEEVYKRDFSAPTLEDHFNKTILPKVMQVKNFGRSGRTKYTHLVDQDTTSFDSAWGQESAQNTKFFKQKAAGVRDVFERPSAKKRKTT
UniProt O75494: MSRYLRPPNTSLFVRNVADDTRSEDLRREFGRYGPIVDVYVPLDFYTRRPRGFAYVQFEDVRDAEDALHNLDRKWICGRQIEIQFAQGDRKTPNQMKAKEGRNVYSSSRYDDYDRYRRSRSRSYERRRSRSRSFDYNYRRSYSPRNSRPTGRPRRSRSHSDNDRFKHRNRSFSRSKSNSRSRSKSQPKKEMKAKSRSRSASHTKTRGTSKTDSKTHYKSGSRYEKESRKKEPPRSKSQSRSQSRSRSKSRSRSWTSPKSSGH
UniProt Q96SB4: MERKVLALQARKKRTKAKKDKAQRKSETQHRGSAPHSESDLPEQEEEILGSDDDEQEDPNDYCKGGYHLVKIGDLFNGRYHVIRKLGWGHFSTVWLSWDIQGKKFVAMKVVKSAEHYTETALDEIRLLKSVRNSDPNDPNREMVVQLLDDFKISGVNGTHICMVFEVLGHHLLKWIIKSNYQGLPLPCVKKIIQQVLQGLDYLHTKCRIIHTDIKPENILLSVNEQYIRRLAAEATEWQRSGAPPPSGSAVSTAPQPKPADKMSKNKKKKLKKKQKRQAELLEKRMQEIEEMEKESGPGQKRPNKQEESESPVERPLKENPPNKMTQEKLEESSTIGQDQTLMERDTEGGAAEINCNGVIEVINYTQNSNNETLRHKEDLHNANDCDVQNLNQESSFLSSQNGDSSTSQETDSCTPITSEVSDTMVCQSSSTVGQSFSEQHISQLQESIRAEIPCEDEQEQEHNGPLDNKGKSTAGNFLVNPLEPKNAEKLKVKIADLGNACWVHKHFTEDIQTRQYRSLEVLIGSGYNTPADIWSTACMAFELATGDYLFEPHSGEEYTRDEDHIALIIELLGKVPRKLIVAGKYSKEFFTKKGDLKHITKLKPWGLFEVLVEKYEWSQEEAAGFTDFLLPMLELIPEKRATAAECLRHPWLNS
UniProt P49759: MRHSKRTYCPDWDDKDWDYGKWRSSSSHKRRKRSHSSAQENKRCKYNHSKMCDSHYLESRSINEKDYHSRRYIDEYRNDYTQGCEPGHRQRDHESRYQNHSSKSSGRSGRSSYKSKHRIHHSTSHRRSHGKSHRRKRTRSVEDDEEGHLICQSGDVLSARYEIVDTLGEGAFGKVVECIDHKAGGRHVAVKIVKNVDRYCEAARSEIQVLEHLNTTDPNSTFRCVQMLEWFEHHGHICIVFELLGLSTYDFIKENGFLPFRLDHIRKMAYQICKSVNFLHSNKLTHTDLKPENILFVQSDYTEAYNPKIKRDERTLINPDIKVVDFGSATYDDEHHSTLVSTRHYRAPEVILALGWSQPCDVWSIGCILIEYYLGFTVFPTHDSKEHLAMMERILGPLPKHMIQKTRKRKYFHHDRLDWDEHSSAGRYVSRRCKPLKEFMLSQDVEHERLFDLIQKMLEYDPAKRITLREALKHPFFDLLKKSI
UniProt O75400: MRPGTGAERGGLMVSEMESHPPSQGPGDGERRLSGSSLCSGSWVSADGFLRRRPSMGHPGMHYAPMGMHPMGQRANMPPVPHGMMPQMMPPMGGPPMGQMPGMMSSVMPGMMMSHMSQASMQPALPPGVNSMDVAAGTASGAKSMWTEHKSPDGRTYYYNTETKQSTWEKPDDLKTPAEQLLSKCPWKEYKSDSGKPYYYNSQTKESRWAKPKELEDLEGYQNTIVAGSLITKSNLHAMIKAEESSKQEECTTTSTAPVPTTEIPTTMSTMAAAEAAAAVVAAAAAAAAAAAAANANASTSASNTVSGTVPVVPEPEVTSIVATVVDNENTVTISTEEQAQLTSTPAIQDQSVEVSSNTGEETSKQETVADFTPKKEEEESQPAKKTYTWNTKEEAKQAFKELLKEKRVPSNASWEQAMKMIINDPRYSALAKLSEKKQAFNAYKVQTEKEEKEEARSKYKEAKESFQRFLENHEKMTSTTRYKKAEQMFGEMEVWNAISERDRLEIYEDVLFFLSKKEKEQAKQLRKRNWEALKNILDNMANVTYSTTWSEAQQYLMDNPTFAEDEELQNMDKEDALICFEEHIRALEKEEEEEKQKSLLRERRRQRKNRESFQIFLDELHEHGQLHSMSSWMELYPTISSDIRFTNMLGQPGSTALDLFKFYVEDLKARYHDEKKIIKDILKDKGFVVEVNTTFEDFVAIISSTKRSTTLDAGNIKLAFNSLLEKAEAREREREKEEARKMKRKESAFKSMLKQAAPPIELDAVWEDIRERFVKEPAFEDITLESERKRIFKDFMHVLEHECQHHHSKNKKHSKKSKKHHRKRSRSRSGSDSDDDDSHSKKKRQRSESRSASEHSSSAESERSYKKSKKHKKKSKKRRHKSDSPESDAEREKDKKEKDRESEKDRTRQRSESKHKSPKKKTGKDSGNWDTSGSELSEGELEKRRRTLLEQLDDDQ
UniProt Q13242: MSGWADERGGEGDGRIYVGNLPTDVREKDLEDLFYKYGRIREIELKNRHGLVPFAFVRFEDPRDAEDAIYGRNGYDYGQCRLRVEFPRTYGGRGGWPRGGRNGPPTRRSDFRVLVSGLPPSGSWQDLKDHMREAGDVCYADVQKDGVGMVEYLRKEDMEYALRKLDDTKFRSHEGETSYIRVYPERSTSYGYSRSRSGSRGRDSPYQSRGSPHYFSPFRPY
UniProt Q13123: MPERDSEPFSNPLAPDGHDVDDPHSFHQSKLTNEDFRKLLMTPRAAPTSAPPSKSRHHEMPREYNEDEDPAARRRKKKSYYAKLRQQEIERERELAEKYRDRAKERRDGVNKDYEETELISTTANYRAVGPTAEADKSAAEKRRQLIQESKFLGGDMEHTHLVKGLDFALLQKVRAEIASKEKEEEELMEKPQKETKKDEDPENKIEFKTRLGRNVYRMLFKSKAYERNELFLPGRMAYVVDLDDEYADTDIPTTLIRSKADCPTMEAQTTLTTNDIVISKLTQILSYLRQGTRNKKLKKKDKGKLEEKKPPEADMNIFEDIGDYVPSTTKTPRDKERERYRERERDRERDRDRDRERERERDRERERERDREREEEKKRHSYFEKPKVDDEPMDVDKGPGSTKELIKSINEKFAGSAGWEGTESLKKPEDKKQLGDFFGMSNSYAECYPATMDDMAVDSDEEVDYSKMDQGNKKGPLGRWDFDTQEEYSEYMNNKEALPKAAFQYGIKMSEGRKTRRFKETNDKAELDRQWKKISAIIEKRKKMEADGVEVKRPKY
UniProt P49761: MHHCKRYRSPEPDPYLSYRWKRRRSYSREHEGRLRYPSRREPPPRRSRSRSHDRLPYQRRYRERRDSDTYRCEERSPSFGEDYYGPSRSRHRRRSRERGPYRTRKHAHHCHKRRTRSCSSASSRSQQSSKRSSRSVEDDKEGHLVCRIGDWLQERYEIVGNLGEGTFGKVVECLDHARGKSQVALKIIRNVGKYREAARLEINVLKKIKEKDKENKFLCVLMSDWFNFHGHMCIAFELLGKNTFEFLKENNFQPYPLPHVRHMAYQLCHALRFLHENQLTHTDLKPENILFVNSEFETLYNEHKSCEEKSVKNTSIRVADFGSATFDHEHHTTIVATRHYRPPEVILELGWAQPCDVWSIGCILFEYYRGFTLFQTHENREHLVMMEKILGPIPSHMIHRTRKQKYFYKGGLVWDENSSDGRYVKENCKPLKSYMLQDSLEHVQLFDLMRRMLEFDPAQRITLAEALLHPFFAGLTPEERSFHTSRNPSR

Results are given in words; binding and its absence hold for the method and conditions named. In cells and extracts the contact can be indirect. A yes stands for co-enrichment or nearness to the bait. Other partners may have been found. Where a sequence is shown, tags or fusion partners need not be part of it.

This assay has as its target T1, SRSF7-GFP fusion product (Serine/arginine-rich splicing factor 7, GFP-tagged at the C-terminus, from a BAC) (human) (UniProt Q16629).
T1 sequence: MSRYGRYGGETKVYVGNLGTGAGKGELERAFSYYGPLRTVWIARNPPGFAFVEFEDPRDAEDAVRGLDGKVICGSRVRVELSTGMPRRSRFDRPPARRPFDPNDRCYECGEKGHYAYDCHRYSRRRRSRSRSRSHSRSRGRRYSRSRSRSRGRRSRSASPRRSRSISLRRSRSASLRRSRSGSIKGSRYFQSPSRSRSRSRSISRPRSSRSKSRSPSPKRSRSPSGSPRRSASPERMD
The assay can be described thus: affinity purification with mass spectrometry; GFP-Trap agarose beads on lysates of BAC-SRSF7-GFP MDA-MB-231 cells treated with 0.1% DMSO or 1 µM T-025 for 24 h; EBC buffer, benzonase, 300 mM NaCl, 2 h at 4 °C; MDA-MB-231-GFP cells as negative control; on-bead trypsin digest, label-free quantification, phospho (STY) as variable modification, four biological replicates.
Consider ZMAT2 (from UniProt Q96NC0 1-199), for which the binding entry was “binds”.
PPIG (from UniProt Q13427 1-754): the binding entry is recorded as “binds”.
Take “PRPF4B (human (endogenous in MDA-MB-231))”: the binding result is reported as “binds”.
Take POLR1A (from UniProt O95602 1-1720): the binding result is listed as “binds”.
The value for CLK4 (from UniProt Q9HAZ1 1-481) was “binds”.
The value for MFAP1 (from UniProt P55081 1-439) was “binds”; that for “phosphorylated SRSF10 (from UniProt O75494 1-262)” was “binds”.
As for “phosphorylated SRSF1 (from UniProt Q07955 1-248)”, the entry is “binds”; as for SRPK1 (from UniProt Q96SB4 1-655), “binds”; as for CLK1 (from UniProt P49759 1-484), “binds”.
In the case of PRPF40A (from UniProt O75400 1-957), the binding entry is recorded as “binds”.
Take CLK2 (from UniProt P49760 1-499): the binding result is “binds”.
The value for SRRM2 (from UniProt Q9UQ35 1-2752) was “binds”.
For the substance “phosphorylated SRSF9 (from UniProt Q13242 1-221)”, the binding entry is on record as “binds”.
Turning to IK (from UniProt Q13123 1-557), the binding entry was “binds”.
On to CLK3 (from UniProt P49761 1-490), for which the binding entry is on record as “binds”.
In the case of CHD2 (from UniProt O14647 1-1828), the binding result is reported as “binds”.
Regarding SLTM (from UniProt Q9NWH9 1-1034), the binding entry is “binds”.
